# Assay results reported in PubChem BioAssay AID330 (DTP/NCI, 2004).
# The list does not hold the whole screen: it is rich in T/C values a quarter to a half above the control, in often repeated tests (any T/C) and in doses without a T/C. Further doses and runs are listed elsewhere. T/C is the treated group as % of the vehicle group. Some doses have a count of surviving animals in place of a T/C: the source files T/C as zero there, which appears to mark a toxic dose or a test without result, not a measured value. Some survivor counts are full or nearly so, which does not show that the dose was tolerated: the source hardly ever lists a survival T/C far under the control, and the zero likely stands for such cases as well. Survivors were counted at the toxicity check, usually on the fifth day, unless a day is given; later deaths do not show. Schedules are NCI's codes, read here as Q, the interval in days (D) or hours (H), X, the number of doses. Some doses were run more than once; the results are listed from low to high. For survival time, this PubChem deposit counts one and a half times the control or more as active, and values a quarter to a half above the control carry no call in these data; other NCI protocols may use other cut-offs.
# Tested on: P388 leukemia ip, CD2F1 mice, survival T/C
# Assay: NCI In Vivo Anticancer Drug Screen. Data for tumor model P388 Leukemia (intraperitoneal) in CD2F1 (CDF1) mice
# Conditions: T/C endpoint: median survival time, higher T/C = longer survival
# [1] = dose: 30.0 mg/kg/injection, schedule: Q01DX005 (ip), vehicle: Klucel (hydroxypropylcellulose) (HPC)
# [2] = dose: 120.0 mg/kg/injection, schedule: Q01DX005 (ip), vehicle: Klucel (hydroxypropylcellulose) (HPC)
# [3] = dose: 240.0 mg/kg/injection, schedule: Q01DX005 (ip), vehicle: Klucel (hydroxypropylcellulose) (HPC)
# [4] = dose: 60.0 mg/kg/injection, schedule: Q01DX005 (ip), vehicle: saline with Tween-80
# [5] = dose: 240.0 mg/kg/injection, schedule: Q01DX005 (ip), vehicle: saline with Tween-80
# [6] = dose: 200.0 mg/kg/injection, schedule: Q01DX009 (ip), vehicle: Klucel (hydroxypropylcellulose) (HPC)
# [7] = dose: 100.0 mg/kg/injection, schedule: Q01DX009 (ip), vehicle: Klucel (hydroxypropylcellulose) (HPC)
# [8] = dose: 50.0 mg/kg/injection, schedule: Q01DX005 (ip), vehicle: Klucel (hydroxypropylcellulose) (HPC)
# [9] = dose: 100.0 mg/kg/injection, schedule: Q01DX005 (ip), vehicle: Klucel (hydroxypropylcellulose) (HPC)
# [10] = dose: 200.0 mg/kg/injection, schedule: Q01DX005 (ip), vehicle: Klucel (hydroxypropylcellulose) (HPC)
# [11] = dose: 240.0 mg/kg/injection, schedule: Q01DX005 (ip), vehicle: saline
# [12] = dose: 100.0 mg/kg/injection, schedule: Q01DX009 (ip), vehicle: saline
# [13] = dose: 200.0 mg/kg/injection, schedule: Q01DX009 (ip), vehicle: saline
# [14] = dose: 400.0 mg/kg/injection, schedule: Q01DX009 (ip), vehicle: saline
# [15] = dose: 200.0 mg/kg/injection, schedule: Q01DX005 (ip), vehicle: saline
smiles,measurement,setting,value
COc1ccc(-c2cc(=O)c3cc(C)c(C)c(C#N)c3o2)cc1,survivor count,[1],6 of 6
same,survivor count,"dose: 60.0 mg/kg/injection, schedule: Q01DX005 (ip), vehicle: Klucel (hydroxypropylcellulose) (HPC)",6 of 6
same,survivor count,[2],6 of 6
same,survivor count,[3],6 of 6
O=c1oc2ccc(Br)cc2cc1-n1nnc2ccccc21,survivor count,[4],6 of 6
same,survivor count,[5],4 of 6
CCCCCNC(=O)CCC(NC(=O)c1ccc(N(C)Cc2cnc3nc(N)nc(N)c3n2)cc1)C(=O)O (configuration not stated),T/C,"dose: 100.0 mg/kg/injection, schedule: Q01DX009 (ip), vehicle: sodium bicarbonate",144 % of control
CCOC(=O)c1ccc(NC(=O)Nc2ccc(NC(C)=O)cc2)cc1,survivor count,[1],6 of 6
same,survivor count,[2],6 of 6
Cc1ccc2c(c1)sc1n[nH]c(=O)n12,survivor count,[6],6 of 6
CCOc1c(N=Nc2ccccc2C)c(C)nn1C(=S)SC,survivor count,"dose: 240.0 mg/kg/injection, schedule: Q01DX005 (ip), vehicle: Klucel + Tween-80",5 of 6
COc1cccc2c1C(=O)c1c(O)c3c(c(O)c1C2=O)C[C@@](O)(c1csc(-c2ccccc2)n1)C[C@@H]3OC1CC(N)C(O)C(C)O1 (some centres not stated),T/C,"dose: 0.78 mg/kg/injection, schedule: Q01DX009 (ip), vehicle: water",129 % of control
same,T/C,"dose: 1.56 mg/kg/injection, schedule: Q01DX009 (ip), vehicle: water",129 and 133 % of control
same,T/C,"dose: 3.13 mg/kg/injection, schedule: Q01DX009 (ip), vehicle: water",139 and 140 % of control
same,T/C,"dose: 6.25 mg/kg/injection, schedule: Q01DX009 (ip), vehicle: water",142 and 144 % of control
same,survivor count,"dose: 12.5 mg/kg/injection, schedule: Q01DX009 (ip), vehicle: water",6 of 6
same,survivor count,"dose: 25.0 mg/kg/injection, schedule: Q01DX009 (ip), vehicle: water","0 of 6, 4 of 6, 5 of 6"
C=C(NC(C)=O)C(=O)O,survivor count,"dose: 25.0 mg/kg/injection, schedule: Q01DX009 (ip), vehicle: saline with Tween-80",6 of 6
same,survivor count,"dose: 50.0 mg/kg/injection, schedule: Q01DX009 (ip), vehicle: saline with Tween-80",5 of 6
same,survivor count,"dose: 200.0 mg/kg/injection, schedule: Q01DX001 (ip), vehicle: saline with Tween-80",1 of 6
same,survivor count,"dose: 400.0 mg/kg/injection, schedule: Q01DX001 (ip), vehicle: saline with Tween-80",0 of 6
C=C1C(=O)O[C@@H]2[C@H]1CC[C@H](C)[C@]1(O)CCC(=O)[C@@]21C,T/C,[7],140 % of control
O=C1/C(=C\c2ccccc2)C2OCC=C3CN4CCC56c7ccccc7N1C5C2C3CC46 (configuration not stated),survivor count,[4],0 of 6
same,survivor count,"dose: 120.0 mg/kg/injection, schedule: Q01DX005 (ip), vehicle: saline with Tween-80",0 of 6
same,survivor count,[5],0 of 6
C=CCn1c(COc2c(I)cc(I)c3cccnc23)n[nH]c1=S,T/C,"dose: 25.0 mg/kg/injection, schedule: Q01DX005 (ip), vehicle: Klucel (hydroxypropylcellulose) (HPC), evaluated on day 20",125 % of control
same,T/C,"dose: 25.0 mg/kg/injection, schedule: Q01DX005 (ip), vehicle: Klucel (hydroxypropylcellulose) (HPC), evaluated on day 30",133 % of control
same,T/C,[8],125 % of control
same,survivor count,[8],3 of 5
same,survivor count,[9],5 of 5
same,survivor count,[10],4 of 5
CC(O)c1cc2c(o1)C(=O)c1cccc(O)c1C2=O (configuration not stated),survivor count,"dose: 75.0 mg/kg/injection, schedule: Q01DX005 (ip), vehicle: Klucel (hydroxypropylcellulose) (HPC)",1 of 5
same,survivor count,"dose: 150.0 mg/kg/injection, schedule: Q01DX005 (ip), vehicle: Klucel (hydroxypropylcellulose) (HPC)",0 of 5
Cc1ccc(NCN2C(=O)c3ccccc3C2=O)c(C)n1,survivor count,[3],0 of 6
O=C(Nc1cc(S(=O)(=O)O)cc2cc(S(=O)(=O)O)c(N=Nc3cc(Nc4nc(Cl)nc(Nc5ccc(S(=O)(=O)O)cc5)n4)ccc3S(=O)(=O)O)c(O)c12)c1ccccc1,survivor count,[11],1 of 6
N=C(N)Sc1ccccn1,T/C,[12],145 % of control
same,survivor count,[13],2 of 6
same,T/C,[14],128 % of control
same,survivor count,[14],0 of 6
CCN(CC)CCCC(C)N(C)CC(C)CCC1=C(C)CCCC1(C)C (configuration not stated),survivor count,"dose: 50.0 mg/kg/injection, schedule: Q01DX005 (ip), vehicle: saline",3 of 5
same,survivor count,"dose: 100.0 mg/kg/injection, schedule: Q01DX005 (ip), vehicle: saline",0 of 5
same,survivor count,[15],0 of 5
C#CC(=O)OCC#CCOC(=O)C#C,survivor count,"dose: 12.0 mg/kg/injection, schedule: Q01DX009 (ip), vehicle: saline with Tween-80",1 of 6
CCN(CCCN(C)C)c1ccc(/C=C/c2ccnc3ccccc23)cc1,survivor count,[13],0 of 6
same,survivor count,[14],0 of 6
CNC(=O)O/N=C(\SC)C(=O)N(C)C,survivor count,"dose: 3.5 mg/kg/injection, schedule: Q01DX005 (ip), vehicle: saline",0 of 6
same,survivor count,"dose: 7.5 mg/kg/injection, schedule: Q01DX005 (ip), vehicle: saline",0 of 6
same,survivor count,"dose: 15.0 mg/kg/injection, schedule: Q01DX005 (ip), vehicle: saline",0 of 6
same,survivor count,"dose: 30.0 mg/kg/injection, schedule: Q01DX005 (ip), vehicle: saline",0 of 6
same,survivor count,"dose: 60.0 mg/kg/injection, schedule: Q01DX005 (ip), vehicle: saline",0 of 6
same,survivor count,"dose: 120.0 mg/kg/injection, schedule: Q01DX005 (ip), vehicle: saline",0 of 6
same,survivor count,[11],0 of 6
S=C1SCN(c2ccc(Br)cc2)CN1c1ccc2[nH]c(=S)sc2c1,survivor count,"dose: 50.0 mg/kg/injection, schedule: Q01DX009 (ip), vehicle: Klucel (hydroxypropylcellulose) (HPC)",6 of 6
same,survivor count,[7],6 of 6
same,survivor count,[6],0 of 6
O=C1c2ccccc2C(=O)N1CN1C(=O)c2ccccc2C1=O,survivor count,"dose: 100.0 mg/kg/injection, schedule: Q01DX009 (ip), vehicle: saline with Tween-80",3 of 6
O=C(CCl)NC(Cc1cccc(F)c1)C(=O)O (configuration not stated),survivor count,"dose: 12.5 mg/kg/injection, schedule: Q01DX009 (ip), vehicle: saline",0 of 6
same,survivor count,"dose: 25.0 mg/kg/injection, schedule: Q01DX009 (ip), vehicle: saline",0 of 6
same,survivor count,"dose: 50.0 mg/kg/injection, schedule: Q01DX009 (ip), vehicle: saline",0 of 6
same,survivor count,[12],0 of 6
same,survivor count,[13],0 of 6
CN(C)CCN(Cc1ccc(Cl)s1)c1ccccn1,survivor count,[15],0 of 5
CN1CCc2c1c1c(c3c4ccccc4n(C)c23)N(C)CC1,survivor count,[8],6 of 6
same,survivor count,[9],6 of 6
same,survivor count,[10],6 of 6
CCC/C=C/C=C/C(=O)OC1/C(=C/C(=O)OC)CC2CC(C(C)O)OC(=O)CC(O)CC3CC(OC(C)=O)C(C)(C)C(O)(CC4C/C(=C/C(=O)OC)CC(/C=C/C(C)(C)C1(O)O2)O4)O3 (configuration not stated),survivor count,"dose: 0.31 mg/kg/injection, schedule: Q01DX009 (ip), vehicle: saline + alcohol",0 of 4
same,survivor count,"dose: 0.62 mg/kg/injection, schedule: Q01DX009 (ip), vehicle: saline + alcohol",0 of 4
same,survivor count,"dose: 1.25 mg/kg/injection, schedule: Q01DX009 (ip), vehicle: saline + alcohol",0 of 4
same,survivor count,"dose: 2.5 mg/kg/injection, schedule: Q01DX009 (ip), vehicle: saline + alcohol",0 of 4
same,survivor count,"dose: 5.0 mg/kg/injection, schedule: Q01DX009 (ip), vehicle: saline + alcohol",0 of 4
same,survivor count,"dose: 150.0 micrograms/kg/injection, schedule: Q01DX009 (ip), vehicle: saline + alcohol",2 of 5
same,survivor count,"dose: 300.0 micrograms/kg/injection, schedule: Q01DX009 (ip), vehicle: saline + alcohol",0 of 5
